Record: PubChem BioAssay AID1259308 (NCATS, 2017)

Aim: 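Candidate targets for better recombinant protein yield in mammalian cells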 (primary screen)
Cells: human HEK293 embryonic kidney cells stably expressing firefly luciferase (HEK-CMV-Luc2-Hygro)
Reagents: single siRNA against human genes, 0.8 pmol siRNA per well
Timing: 72 h
Measured: 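Reporter luminescence and viable-cell signal on separate replicate plates, given as percent of non-targeting control and median/MAD z-scores, plus per-cell luciferase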
Direction: total luciferase, z-score and total luciferase, % of control: higher = more reporter protein produced
Active means: 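An siRNA counts as active if its total luciferase robust z-score exceeds 3; genes with two or more such siRNAs out of three were retested with fresh siRNAs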
Calls: active = raised luciferase; inactive = no rise
The deposit covers about 59,000 reagents; this is a random part of them. Over the whole deposit, about 1,510 (2.6%) are marked active. 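Calls use total luciferase alone and ignore viability, so some active siRNAs may act by altering cell number.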 Unmarked entries are inactive. The numbers tell different reagents against one gene apart. Further read-outs or replicates are left out here. Reagent sequences are not shown.

For AIF1L (allograft inflammatory factor 1 like) #1, what does the deposit list?
total luciferase, z-score: 1.61; total luciferase, % of control: 114

How did the screen score AIF1L (allograft inflammatory factor 1 like) #2?
total luciferase, z-score: -1.71; total luciferase, % of control: 47.9

Which result is listed for AIF1L (allograft inflammatory factor 1 like) #3?
total luciferase, z-score: 0.413; total luciferase, % of control: 90.1

How did the screen score SPINT4 (serine peptidase inhibitor, Kunitz type 4) #1?
total luciferase, z-score: -0.318; total luciferase, % of control: 75.6

For SPINT4 (serine peptidase inhibitor, Kunitz type 4) #2, how do the results read?
total luciferase, z-score: 3.31 (active); total luciferase, % of control: 148

For SPINT4 (serine peptidase inhibitor, Kunitz type 4) #3, what was measured?
total luciferase, z-score: 0.281; total luciferase, % of control: 87.5

What is on record for TDG (thymine DNA glycosylase) #1?
total luciferase, z-score: 2.06; total luciferase, % of control: 123

With TDG (thymine DNA glycosylase) #2, what does the deposit list?
total luciferase, z-score: -0.0309; total luciferase, % of control: 81.3

For TDG (thymine DNA glycosylase) #3, what was measured?
total luciferase, z-score: 3.08 (active); total luciferase, % of control: 143

With PROKR1 (prokineticin receptor 1) #1, how do the results read?
total luciferase, z-score: -0.141; total luciferase, % of control: 79.1

With PROKR1 (prokineticin receptor 1) #2, what was measured?
total luciferase, z-score: -0.025; total luciferase, % of control: 81.4

Which result is listed for PROKR1 (prokineticin receptor 1) #3?
total luciferase, z-score: -0.847; total luciferase, % of control: 65
